Results from PubChem BioAssay AID186 (DTP/NCI, 2004).
The mice bore no tumour; each value counts animals alive of those treated. Counts of survivors are from the toxicity check (mostly the fifth day) where no day follows; animals may have died later. Schedule codes are those of the source, taken here to give the interval after Q, in days (D) or hours (H), and the number of doses after X. Some entries were tested several times; their values stand side by side, smallest first.

System: B6D2F1 mice, nontumored toxicity test, survival
Experiment: NCI In Vivo Anticancer Drug Screen. Data for tumor model Nontumored Animals (Toxicity Test) in B6D2F1 (BDF1) mice

SMILES: CC1CCC(NC(=O)N(CCCl)N=O)CC1 (centres undefined)
- survivor count (dose: 3.0 mg/kg/injection, schedule: Q01DX009 (ip), vehicle: saline): 6 of 6
- survivor count (dose: 3.0 mg/kg/injection, schedule: Q03HX008 (ip), vehicle: saline): 6 of 6
- survivor count (dose: 3.0 mg/kg/injection, schedule: Q03HX016 (ip), vehicle: saline): 6 of 6
- survivor count (dose: 3.0 mg/kg/injection, schedule: Q03HX024 (ip), vehicle: saline): 6 of 6
- survivor count (dose: 3.12 mg/kg/injection, schedule: Q01DX017 (ip), vehicle: saline): 6 of 6
- survivor count (dose: 3.12 mg/kg/injection, schedule: Q06HX012 (ip), vehicle: saline): 6 of 6
- survivor count (dose: 3.24 mg/kg/injection, schedule: Q04DX003 (ip), vehicle: other): 5 of 5
- survivor count (dose: 3.75 mg/kg/injection, schedule: Q04DX003 (ip), vehicle: other): 4 of 4
- survivor count (dose: 5.0 mg/kg/injection, schedule: Q01DX005 (ip), vehicle: saline): 6 of 6
- survivor count (dose: 5.0 mg/kg/injection, schedule: Q01DX009 (ip), vehicle: saline): 6 of 6
- survivor count (dose: 5.0 mg/kg/injection, schedule: Q01DX009 (sc), vehicle: saline): 6 of 6
- survivor count (dose: 5.0 mg/kg/injection, schedule: Q03HX008 (ip), vehicle: saline): 6 of 6
- survivor count (dose: 5.0 mg/kg/injection, schedule: Q03HX016 (ip), vehicle: saline): 6 of 6
- survivor count (dose: 5.0 mg/kg/injection, schedule: Q03HX024 (ip), vehicle: saline): 6 of 6
- survivor count (dose: 5.0 mg/kg/injection, schedule: Q04DX002 (ip), vehicle: other): 4 of 4
- survivor count (dose: 5.4 mg/kg/injection, schedule: Q04DX003 (ip), vehicle: other): 5 of 5
- survivor count (dose: 6.25 mg/kg/injection, schedule: Q01DX017 (ip), vehicle: saline): 6 of 6
- survivor count (dose: 6.25 mg/kg/injection, schedule: Q06HX004 (ip), vehicle: saline): 6 of 6
- survivor count (dose: 6.25 mg/kg/injection, schedule: Q06HX012 (ip), vehicle: saline): 6 of 6
- survivor count (dose: 7.5 mg/kg/injection, schedule: Q04DX003 (ip), vehicle: other): 4 of 4
- survivor count (dose: 8.4 mg/kg/injection, schedule: Q01DX005 (ip), vehicle: saline): 6 of 6
- survivor count (dose: 8.4 mg/kg/injection, schedule: Q01DX009 (ip), vehicle: saline): 6 of 6
- survivor count (dose: 8.4 mg/kg/injection, schedule: Q01DX009 (oral), vehicle: saline): 6 of 6
- survivor count (dose: 8.4 mg/kg/injection, schedule: Q01DX009 (sc), vehicle: saline): 6 of 6
- survivor count (dose: 8.4 mg/kg/injection, schedule: Q03HX008 (ip), vehicle: saline): 6 of 6
- survivor count (dose: 8.4 mg/kg/injection, schedule: Q03HX016 (ip), vehicle: saline): 6 of 6
- survivor count (dose: 8.4 mg/kg/injection, schedule: Q03HX024 (ip), vehicle: saline): 6 of 6
- survivor count (dose: 8.4 mg/kg/injection, schedule: Q04DX003 (ip), vehicle: saline): 6 of 6
- survivor count (dose: 9.0 mg/kg/injection, schedule: Q04DX003 (ip), vehicle: other): 5 of 5
- survivor count (dose: 10.0 mg/kg/injection, schedule: Q04DX002 (ip), vehicle: other): 4 of 4
- survivor count (dose: 10.8 mg/kg/injection, schedule: Q01DX001 (ip), vehicle: other): 5 of 5
- survivor count (dose: 12.5 mg/kg/injection, schedule: Q01DX001 (ip), vehicle: saline): 6 of 6
- survivor count (dose: 12.5 mg/kg/injection, schedule: Q01DX017 (ip), vehicle: saline): 3 of 6
- survivor count (dose: 12.5 mg/kg/injection, schedule: Q06HX004 (ip), vehicle: saline): 6 of 6
- survivor count (dose: 12.5 mg/kg/injection, schedule: Q06HX012 (ip), vehicle: saline): 6 of 6
- survivor count (dose: 12.5 mg/kg/injection, schedule: Q08DX003 (ip), vehicle: saline): 6 of 6
- survivor count (dose: 14.0 mg/kg/injection, schedule: Q01DX001 (ip), vehicle: saline): 6 of 6
- survivor count (dose: 14.0 mg/kg/injection, schedule: Q01DX001 (sc), vehicle: saline): 6 of 6
- survivor count (dose: 14.0 mg/kg/injection, schedule: Q01DX005 (ip), vehicle: saline): 6 of 6
- survivor count (dose: 14.0 mg/kg/injection, schedule: Q01DX009 (ip), vehicle: saline): 6 of 6
- survivor count (dose: 14.0 mg/kg/injection, schedule: Q01DX009 (oral), vehicle: saline): 5 of 6
- survivor count (dose: 14.0 mg/kg/injection, schedule: Q01DX009 (sc), vehicle: saline): 5 of 6
- survivor count (dose: 14.0 mg/kg/injection, schedule: Q03HX008 (ip), vehicle: saline): 6 of 6
- survivor count (dose: 14.0 mg/kg/injection, schedule: Q03HX016 (ip), vehicle: saline): 6 of 6
- survivor count (dose: 14.0 mg/kg/injection, schedule: Q03HX024 (ip), vehicle: saline): 6 of 6
- survivor count (dose: 14.0 mg/kg/injection, schedule: Q04DX003 (ip), vehicle: saline): 6 of 6
- survivor count (dose: 14.0 mg/kg/injection, schedule: Q08DX002 (ip), vehicle: saline): 6 of 6
- survivor count (dose: 15.0 mg/kg/injection, schedule: Q04DX003 (ip), vehicle: other): 4 of 4 and 5 of 5
- survivor count (dose: 18.0 mg/kg/injection, schedule: Q01DX001 (ip), vehicle: other): 5 of 5
- survivor count (dose: 18.0 mg/kg/injection, schedule: Q01DX001 (ip), vehicle: saline with Tween-80): 10 of 10
- survivor count (dose: 20.0 mg/kg/injection, schedule: Q04DX002 (ip), vehicle: other): 4 of 4
- survivor count (dose: 23.0 mg/kg/injection, schedule: Q01DX001 (ip), vehicle: saline): 6 of 6
- survivor count (dose: 23.0 mg/kg/injection, schedule: Q01DX001 (oral), vehicle: saline): 6 of 6
- survivor count (dose: 23.0 mg/kg/injection, schedule: Q01DX001 (sc), vehicle: saline): 6 of 6
- survivor count (dose: 23.0 mg/kg/injection, schedule: Q01DX005 (ip), vehicle: saline): 6 of 6
- survivor count (dose: 23.0 mg/kg/injection, schedule: Q01DX009 (ip), vehicle: saline): 6 of 6
- survivor count (dose: 23.0 mg/kg/injection, schedule: Q01DX009 (oral), vehicle: saline): 6 of 6
- survivor count (dose: 23.0 mg/kg/injection, schedule: Q01DX009 (sc), vehicle: saline): 6 of 6
- survivor count (dose: 23.0 mg/kg/injection, schedule: Q03HX008 (ip), vehicle: saline): 6 of 6
- survivor count (dose: 23.0 mg/kg/injection, schedule: Q03HX016 (ip), vehicle: saline): 6 of 6
- survivor count (dose: 23.0 mg/kg/injection, schedule: Q03HX024 (ip), vehicle: saline): 6 of 6
- survivor count (dose: 23.0 mg/kg/injection, schedule: Q04DX003 (ip), vehicle: saline): 6 of 6
- survivor count (dose: 23.0 mg/kg/injection, schedule: Q08DX002 (ip), vehicle: saline): 6 of 6
- survivor count (dose: 25.0 mg/kg/injection, schedule: Q01DX001 (ip), vehicle: saline): 6 of 6
- survivor count (dose: 25.0 mg/kg/injection, schedule: Q01DX017 (ip), vehicle: saline): 0 of 6
- survivor count (dose: 25.0 mg/kg/injection, schedule: Q04DX003 (ip), vehicle: other): 5 of 5
- survivor count (dose: 25.0 mg/kg/injection, schedule: Q06HX004 (ip), vehicle: saline): 4 of 6
- survivor count (dose: 25.0 mg/kg/injection, schedule: Q06HX012 (ip), vehicle: saline): 6 of 6
- survivor count (dose: 25.0 mg/kg/injection, schedule: Q08DX003 (ip), vehicle: saline): 6 of 6
- survivor count (dose: 28.0 mg/kg/injection, schedule: Q01DX001 (ip), vehicle: saline with Tween-80): 10 of 10
- survivor count (dose: 30.0 mg/kg/injection, schedule: Q01DX001 (ip), vehicle: other): 5 of 5
- survivor count (dose: 30.0 mg/kg/injection, schedule: Q04DX003 (ip), vehicle: other): 4 of 4
- survivor count (dose: 39.0 mg/kg/injection, schedule: Q01DX001 (ip), vehicle: saline): 6 of 6
- survivor count (dose: 39.0 mg/kg/injection, schedule: Q01DX001 (oral), vehicle: saline): 6 of 6
- survivor count (dose: 39.0 mg/kg/injection, schedule: Q01DX001 (sc), vehicle: saline): 6 of 6
- survivor count (dose: 39.0 mg/kg/injection, schedule: Q01DX005 (ip), vehicle: saline): 6 of 6
- survivor count (dose: 39.0 mg/kg/injection, schedule: Q01DX009 (oral), vehicle: saline): 6 of 6
- survivor count (dose: 39.0 mg/kg/injection, schedule: Q01DX009 (sc), vehicle: saline): 6 of 6
- survivor count (dose: 39.0 mg/kg/injection, schedule: Q04DX003 (ip), vehicle: saline): 6 of 6
- survivor count (dose: 39.0 mg/kg/injection, schedule: Q08DX002 (ip), vehicle: saline): 6 of 6
- survivor count (dose: 40.0 mg/kg/injection, schedule: Q04DX002 (ip), vehicle: other): 2 of 3
- survivor count (dose: 42.0 mg/kg/injection, schedule: Q01DX001 (ip), vehicle: saline with Tween-80): 10 of 10
- survivor count (dose: 50.0 mg/kg/injection, schedule: Q01DX001 (ip), vehicle: other): 5 of 5
- survivor count (dose: 50.0 mg/kg/injection, schedule: Q01DX001 (ip), vehicle: saline): 6 of 6
- survivor count (dose: 50.0 mg/kg/injection, schedule: Q06HX004 (ip), vehicle: saline): 1 of 6
- survivor count (dose: 50.0 mg/kg/injection, schedule: Q08DX003 (ip), vehicle: saline): 6 of 6
- survivor count (dose: 65.0 mg/kg/injection, schedule: Q01DX001 (ip), vehicle: saline): 6 of 6
- survivor count (dose: 65.0 mg/kg/injection, schedule: Q01DX001 (oral), vehicle: saline): 6 of 6
- survivor count (dose: 65.0 mg/kg/injection, schedule: Q01DX001 (sc), vehicle: saline): 6 of 6
- survivor count (dose: 65.0 mg/kg/injection, schedule: Q01DX009 (oral), vehicle: saline): 6 of 6
- survivor count (dose: 65.0 mg/kg/injection, schedule: Q04DX003 (ip), vehicle: saline): 6 of 6
- survivor count (dose: 65.0 mg/kg/injection, schedule: Q08DX002 (ip), vehicle: saline): 6 of 6
- survivor count (dose: 100.0 mg/kg/injection, schedule: Q01DX001 (ip), vehicle: saline): 3 of 6
- survivor count (dose: 100.0 mg/kg/injection, schedule: Q08DX003 (ip), vehicle: saline): 2 of 6
- survivor count (dose: 108.0 mg/kg/injection, schedule: Q01DX001 (ip), vehicle: saline): 6 of 6
- survivor count (dose: 108.0 mg/kg/injection, schedule: Q01DX001 (oral), vehicle: saline): 6 of 6
- survivor count (dose: 108.0 mg/kg/injection, schedule: Q01DX001 (sc), vehicle: saline): 6 of 6
- survivor count (dose: 108.0 mg/kg/injection, schedule: Q08DX002 (ip), vehicle: saline): 5 of 6
- survivor count (dose: 180.0 mg/kg/injection, schedule: Q01DX001 (oral), vehicle: saline): 6 of 6
